From ROBIN, a set of small-molecule microarray screens (doi:10.1002/anie.202211358).

Oligonucleotides screened, 5′ to 3′:
SAM-II: SAM-II riboswitch RNA pseudoknot, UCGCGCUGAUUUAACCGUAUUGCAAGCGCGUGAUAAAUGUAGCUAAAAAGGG. About 21,000 compounds screened, about 200 hits.
PreQ1: PreQ1 riboswitch RNA pseudoknot, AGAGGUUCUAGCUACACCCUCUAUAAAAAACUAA. From B. subtilis. About 24,000 compounds screened, about 170 hits.
TPP: TPP riboswitch RNA three-way junction, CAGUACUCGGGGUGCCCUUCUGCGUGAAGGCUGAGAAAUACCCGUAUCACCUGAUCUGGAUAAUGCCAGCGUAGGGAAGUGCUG. About 24,000 compounds screened, about 160 hits.

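The test is a small-molecule microarray: each compound is printed twice on a reactive slide, and binding shows as fluorescence of the labelled oligonucleotide after washing. The data file lists only calls. An earlier report of the laboratory on the PreQ1, TPP and SAM-II riboswitches (doi:10.1038/s41467-019-09493-3) used 1 µM RNA for 2 h and required a mean Z-score above 3 (spot signal-to-noise against the whole library), a score well above that on a control array, and duplicate spots agreeing (coefficient of variation under 100); it then also set aside compounds that hit other targets, which this list keeps. The cut-offs behind this list may differ. The calls come from the array alone, and fixing a compound to the slide can hide its binding.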
A compound is marked hit if it was called a hit and no hit if it was screened but was not.
The compounds are a random part of those screened.
A dash means that no call is listed here.

compound,SAM-II,PreQ1,TPP
Cc1ccc2nc(Nc3nc(C)c4ccccc4n3)nc(O)c2c1,no hit,no hit,no hit
CCOc1ccc(-c2[nH]c3c(C#N)cnn3c2NC2CCCCCCC2)cc1,-,no hit,no hit
Cn1c(CCNC(=O)CCCO)nc2ccccc21,-,no hit,no hit
CSc1ccc(-c2nc3sccn3c2Nc2ccccc2)cc1,no hit,no hit,no hit
NCc1nnc(SCc2ccccc2)o1,-,no hit,no hit
C[C@@H](O)[C@H](NC(=O)c1coc(COc2ccc3c(c2)OCO3)n1)C(N)=O,no hit,no hit,no hit
COc1ccc(/N=C2\NC(C)(CO)CS2)cc1 (centres undefined),no hit,no hit,no hit
CC1(C)CC(O)(CNCc2ccc(Cl)cc2)CCO1 (centres undefined),no hit,no hit,no hit
c1ccc2c(c1)nnn2CCCn1ccnc1-c1cc2n(n1)CCNC2,no hit,no hit,no hit
O=C1CC(Nc2ccccc2)C(=O)N1c1cccc(Cl)c1 (centres undefined),no hit,no hit,no hit
O=C(c1ccoc1)N1CCC2(CCN(Cc3ccccn3)CC2)C(CO)C1 (centres undefined),no hit,no hit,no hit
COc1ccc(-c2cc(Nc3cccc(OC)c3)nc(C)n2)cc1,-,no hit,no hit
Cc1c(S(=O)(=O)c2ccccc2)c(N)n(Cc2ccccn2)c1C,no hit,no hit,no hit
Cc1ccc(N2CCCn3c2nc2c3c(=O)n(CCCO)c(=O)n2C)c(C)c1,-,no hit,no hit
Cn1cc(CNc2nc(N)nc3c2CCN(CC2CCOC2)CC3)cn1 (centres undefined),no hit,no hit,no hit
Clc1cccc(CNCCc2c[nH]c3ccccc23)c1,no hit,no hit,no hit
CC(=O)c1cccc(NC2c3ccccc3C(=O)N2Cc2ccccc2Cl)c1 (centres undefined),no hit,no hit,no hit
Fc1cccc(Nc2c3c(nc4ccccc24)CCC3)c1,no hit,no hit,no hit
O=S1(=O)C[C@H](NC2CC2)[C@@H](S(=O)(=O)c2ccc(Cl)cc2)C1,-,no hit,no hit
O=C(O)c1ccc2c(c1Sc1ccccc1)C(=O)c1ccccc1C2=O,no hit,no hit,no hit
COc1ccc(-c2cc(CNCC3=NOC(Cc4cc(OC)c5c(c4OC)OCO5)C3)on2)cc1 (centres undefined),no hit,no hit,no hit
CC(=O)c1cccc(NC2CCCc3c2[nH]c2ccc(C)cc32)c1 (centres undefined),no hit,no hit,no hit
O=C(NCc1nnc2n1CCCC2)c1cn(CCC2CCCCN2)nn1 (centres undefined),no hit,no hit,no hit
Cc1cccc(-c2nc3nc(C)cc(N(C)CCO)n3n2)c1,-,no hit,no hit
COc1ccc(OCC(O)CSc2ccccn2)cc1.Cl (centres undefined),no hit,no hit,no hit
O=[N+]([O-])c1ccc(/C=[N+](\[O-])CCO)o1,no hit,no hit,no hit
O=C1c2cccnc2C(Nc2cccc(F)c2)N1Cc1ccco1 (centres undefined),no hit,no hit,no hit
Cn1ncc(N2CCN(c3nc(N)nc4c3CCNCC4)CC2)cc1=O,no hit,no hit,no hit
CCNC(=O)Nc1ccc(-c2nc3c(c(N4CCOC[C@H]4C)n2)CCN(C2COC2)C3)cc1,no hit,no hit,no hit
COc1cccc(C2C(C(C)=O)=C(O)C(=O)N2CO)c1 (centres undefined),no hit,no hit,no hit
C1=C2CCCN[C@H]2[C@@H]2C[C@H]1[C@@H]1CCCCN1C2,no hit,no hit,no hit
c1cc2c(c(-c3cccc4[nH]ccc34)c1)CCNC2,no hit,hit,hit
Cc1nc(C)n(CC(C)C(=O)N(C)CC2(CO)CCOCC2)n1 (centres undefined),no hit,no hit,no hit
N[C@@H](Cc1ccccc1)c1nnc(SCc2ccc(Br)cc2)o1,-,no hit,no hit
Cn1cnc([N+](=O)[O-])c1Sc1nnc(-c2cccnc2)n1C,no hit,no hit,no hit
OCCNCc1ccc(-c2ccc(Cl)cc2)o1,-,no hit,no hit
CC(C)Nc1ccnc(N2CCN(Cc3cccs3)C(CCO)C2)n1 (centres undefined),no hit,no hit,no hit
CCN(CCO)CCCOc1ccc2c(Nc3cc(CC(=O)Nc4cccc(F)c4)[nH]n3)ncnc2c1,no hit,no hit,no hit
Cc1csc(CCCNc2nc(N(C)C)nc3c2CCNCC3)n1,no hit,no hit,no hit
Cn1cnnc1SCC(=O)N1C[C@@H](CN2CCCC2)[C@@H](CO)C1,no hit,no hit,no hit
COc1nccc(N2CC[C@@H](N3CCN(C)CC3)[C@H](O)C2)c1C#N,no hit,no hit,no hit
OC[C@H]1CN(C2CCN(Cc3ccccc3)CC2)C[C@H]1CN1CCCC1,no hit,no hit,no hit
O=c1cc(Nc2ccc(F)cc2)c2ccccc2o1,no hit,no hit,no hit
Cc1sc(NC2=NS(=O)(=O)c3ccccc32)nc1-c1ccccc1,no hit,no hit,no hit
O=C(c1[nH]nc2c1CCCC2)N1CCOC2(CNCCOC2)C1 (centres undefined),no hit,no hit,no hit
COc1ccc(S(=O)(=O)[C@H]2CS(=O)(=O)C[C@@H]2NCc2ccco2)cc1,-,no hit,no hit
CCN(CC)CCCNc1cc(C)nc2c3c(C)cc(C)nc3nn12,-,no hit,no hit
CC(Nc1nc(CO)nc2ccccc12)c1ccsc1 (centres undefined),no hit,no hit,no hit
CC(C)(C(=O)O)c1cnc(N2CC[C@H](CO)[C@@H](O)C2)nc1N1CCOCC1,no hit,no hit,no hit
COC1CCN(S(=O)(=O)N[C@H]2CN(CCO)C[C@@H]2C2CC2)CC1,no hit,no hit,no hit
COc1ccc(Cc2nc(CSc3nc(C)cs3)n(CCO)n2)cc1,no hit,no hit,no hit
CCC(CC)C1C(C#N)=C(N)Oc2n[nH]c(C)c21 (centres undefined),no hit,no hit,no hit
C=CCOC(=O)C1=C(C)OC(N)=C(C#N)C1c1cc(OC)c(OC)c(OC)c1 (centres undefined),no hit,no hit,no hit
CCOc1ccc(NCC(=O)NN=Cc2c[nH]c3ccccc23)cc1,no hit,no hit,no hit
Cl.O=C1Nc2ccccc2C1=NNC(=O)C1CCNCC1,no hit,no hit,no hit
C[C@H]1[C@H](C)N1CC(O)Cn1ccnc1[N+](=O)[O-] (some centres undefined),no hit,no hit,no hit
O=C(Nc1cccc2c1CCC2)c1ccc(CN2CCOCC2CO)cc1 (centres undefined),no hit,no hit,no hit
N#CCc1nn(-c2ccccc2)c(N)c1C#N,no hit,no hit,no hit
COC(=O)N1CCCc2cc(N)ccc21,no hit,no hit,no hit
c1cc(-c2ccc(CN3CCNCC3)cc2)n2nccc2c1,no hit,no hit,no hit
COC(=O)C1=C(N)OC2=C(C(=O)CC(C)(C)C2)C1c1ccc(C)cc1 (centres undefined),no hit,no hit,no hit
COCC1(C(=O)N2CCC(C(O)Cc3ccccc3)CC2)CCC1 (centres undefined),no hit,no hit,no hit
Cc1cc(C(=O)N2CCc3nc(N)sc3C2)c2ccc(C)c(C)c2n1,no hit,no hit,no hit

For reference, 5 entries once more:

| compound | SAM-II | PreQ1 | TPP |
|---|---|---|---|
| `COc1ccc(-c2cc(Nc3cccc(OC)c3)nc(C)n2)cc1` | - | no hit | no hit |
| `Cc1cc(C(=O)N2CCc3nc(N)sc3C2)c2ccc(C)c(C)c2n1` | no hit | no hit | no hit |
| `CCOc1ccc(NCC(=O)NN=Cc2c[nH]c3ccccc23)cc1` | no hit | no hit | no hit |
| `C[C@H]1[C@H](C)N1CC(O)Cn1ccnc1[N+](=O)[O-]` (some centres undefined) | no hit | no hit | no hit |
| `O=C(Nc1cccc2c1CCC2)c1ccc(CN2CCOCC2CO)cc1` (centres undefined) | no hit | no hit | no hit |